Experimental findings from PMC7515635 (2020) are described below.

B1: HIS6-AtC53 [Arabidopsis thaliana] / GST-ATG8A [Arabidopsis thaliana] (parent complex)
chain 1: MPSQDDVQNLPIDITFSRLGEWLVDRKRIPADWRKRVAVIRVKILKEFSSLPKEIDPFFQTLDPEVIGYLEVKKVYEILLKTTPESRNIFGRLSGASGVWEAIVRAFEKDHIYLGEAAQIIIQNVNYEIPYLKKQVQKVQQQMTELDRKEADIKRSVALSATKYEDACRELGLQGNNVRRELLETASSLPSTFSKILEVINSDSVTGAMEYYSAYVQDVHTEKDKPLRIVLQNLKYIRENPPSLSVFGDSEGLDADNIQSSENANGTDAAADSIDWDITVETPEIDWDVSMVEEVDSGNDLGSYEIVNASDIPENSPFKVEESQGLEVDVSEISWDVSVETPQVEEIGDSALLESNQTQLTDSTTQVLGSGGERSQLLETEYRNKILDDLYEVKAFLNQRLIELRNEDTLSLQHHVQAVSPMVLQQYSPETIEPMVVDISMAISLLTNKKSRDLIMILNSKRFLDRLVSELEEKKHREVKLRESLKDVGRRRMELQNSLSAIWPKQEAALSKTRELKELCETSLSSMFDGRPVNIRGEINTLLNAGVSA
chain 2: MAKSSFKISNPLEARMSESSRIREKYPDRIPVIVEKAGQSDVPDIDKKKYLVPADLTVGQFVYVVRKRIKLGAEKAIFVFVKNTLPPTAALMSAIYEEHKDEDGFLYMTYSGENTFG

Variants of B1 are the subject of the experiment. Put plainly: SPR; 10 µM C53 premixed with buffer (0 nM AIM wt); GST-ATG8A captured at 500 RU, GST reference 300 RU; response read at end of injection (60 s); read off a plot. (In SPR one partner is held on a chip, and binding of the other changes the refractive index at the surface.)
Turning to chain 1 W276A, chain 1 W287A, chain 1 Y304A, chain 1 W335A, the response was around 35 RU.
